Data as given in US20050101542A1, “Combination therapy for controlling appetites” (Regents of the University of California, priority 2002, published 2005).

Experiment: Plasma hormone levels by radioimmunoassay
Format: in vivo, rat
Conditions: 60 min after OEA 20 mg per kg i.p.
Experimental: Blood chemistry. Plasma β-hydroxybutyrate and glycerol were measured using commercial kits (Sigma, St. Louis, Mo.). Plasma prolactin, corticosterone and luteinizing hormone were quantified by radioimmunoassay (Navarro, et al., Neuroreport, 8:491-496 (1997)).

CCCCCCCC/C=C\CCCCCCCC(=O)NCCO [OEA, Z-2-hydroxyethyl octadec-9-enamide]
plasma corticosterone (B): 280 ± 61 ng per ml | plasma luteinizing hormone (LH): 6.2 ± 1.5 ng per ml | plasma prolactin (PRL): 8.2 ± 3.2 ng per ml
